4 compounds from PMC11809919, “Quinoxaline-based anti-schistosomal compounds have potent anti-plasmodial activity” (PLOS Pathogens, 2025) can be followed below.

Some compounds share one range, which may span the group rather than tell each member.

What all share (format): cell-based, Plasmodium falciparum
Data set [1] concerns Dd2-Polδ mutator line. Kind of data set: Minimum inoculum for resistance (MIR), Dd2-Polδ.
The test system of another data set is Dd2 parental parasites. Kind of data set: Minimum inoculum for resistance (MIR), Dd2 parental. The following applies: for Recrudescent day: Dd2 wildtype, day parasitemia crossed 1%.
In data set [2] the test system is Dd2-Polδ mutator line. Kind of data set: In vitro drug resistance selections using Dd2-Polδ. The conditions noted are these: for Flasks with recovered parasites: triplicate flasks, 1×10^8 parasites, 5×IC50; for Ramping selections: initially 1×IC50, increasing concentrations.
[3] abbreviates: 5×IC50, inoculum 10^8 parasites.
The mark [4] stands for this setting: 5×IC50, inoculum 10^8 parasites, after drug removal.
Setting [5] is: 5×IC50, inoculum 10^9 parasites.

With `CC1(C)c2nc(-c3ccc(F)cc3)c(Nc3ccc(Cl)cc3)n2CCN1C(=O)CN` [GNF179], the Recrudescent cultures with Dd2-Polδ mutator line [1] (inoculum 10^6, 3×IC50) is 2 of 3; in the data set with Dd2 parental parasites (Dd2, inoculum 10^7 and 10^8, 3×IC50), 3/3. The Recrudescent day in the data set on Dd2-Polδ mutator line [1] (inoculum 10^6, day parasitemia crossed 1%) is given as 35; with Dd2-Polδ mutator line [1] (inoculum 10^7, day parasitemia crossed 1%), 16; in the data set on Dd2-Polδ mutator line [1] (inoculum 10^8, day parasitemia crossed 1%), 26; in the data set with Dd2 parental parasites (inoculum 10^7) it was 26-42; in the data set with Dd2 parental parasites (inoculum 10^8), 26-32.

Take `O=[N+]([O-])c1ccc2nc(Nc3ccc(Cl)c(Cl)c3)c(Nc3ccc(Cl)c(Cl)c3)nc2c1` [Compound 22]: the Recrudescence result in the data set on Dd2-Polδ mutator line [1] (inoculum 10^4 – 10^8) is “no recrudescence”; in the data set on Dd2 parental parasites (Dd2, inoculum 10^4 – 10^8), “no recrudescence”; in the data set on Dd2-Polδ mutator line [2] (setting [4]), “approximately 3 weeks”; in the data set on Dd2-Polδ mutator line [2] (5×IC50, inoculum 10^8 parasites, after drug removal, listed as C22) it was 3 weeks. Also, the “Minimum inoculum for resistance (MIR)” value in the data set on Dd2 parental parasites (Dd2 and Dd2-Polδ, triplicate cultures, 10^4 – 10^8 per culture) is > 3×10^8 parasites. The “Parasite below detection limit” value in the data set with Dd2-Polδ mutator line [2] (setting [3]) is 8 to 10 days. Further, the “Flasks with recovered parasites” value in the data set on Dd2-Polδ mutator line [2] is on record as “two of the triplicate flasks”.

`O=[N+]([O-])c1ccc2nc(Nc3cc(C(F)(F)F)ccc3F)c(Nc3cc(C(F)(F)F)ccc3F)nc2c1` [Compound 33]: the “Parasite below detection limit” value in the data set on Dd2-Polδ mutator line [2] (setting [3]) and in the data set on Dd2-Polδ mutator line [2] (setting [5]) was 8 to 10 days each time. Further, the Recrudescence entry is reported as “did not recover even after 60 days” in the data set with Dd2-Polδ mutator line [2] (setting [4]); “no recrudescence” in the data set with Dd2-Polδ mutator line [2] (5×IC50, inoculum 10^8 parasites, after drug removal, listed as C33); “no recrudescent parasites were recovered” with Dd2-Polδ mutator line [2] (setting [5]); “no recrudescence” in the data set with Dd2-Polδ mutator line [2] (5×IC50, inoculum 10^9 parasites, listed as C33). Moreover, in the data set on Dd2-Polδ mutator line [2], the Ramping selections result is recorded as “no resistance”.

`O=[N+]([O-])c1ccc2nc(Nc3ccc(C(F)(F)F)cc3)c(Nc3ccc(C(F)(F)F)cc3)nc2c1` [Compound 31]: the “Parasite below detection limit” value with Dd2-Polδ mutator line [2] (setting [3]) and in the data set on Dd2-Polδ mutator line [2] (setting [5]) was 8 to 10 days each time. Moreover, the Recrudescence result in the data set with Dd2-Polδ mutator line [2] (setting [4]) is given as “approximately 3 weeks”; in the data set on Dd2-Polδ mutator line [2] (5×IC50, inoculum 10^8 parasites, after drug removal, listed as C31), 3 weeks; in the data set on Dd2-Polδ mutator line [2] (setting [5]) it was “no recrudescent parasites were recovered”; in the data set on Dd2-Polδ mutator line [2] (5×IC50, inoculum 10^9 parasites, listed as C31) it was “no recrudescence”. In addition, the Ramping selections result with Dd2-Polδ mutator line [2] is given as “no resistance”. The “Flasks with recovered parasites” value in the data set with Dd2-Polδ mutator line [2] is “two of the triplicate flasks”.
